Drawing on publication PMC11530556, this text covers binding for two molecules.

The target of the test is full-length Titin N2B unique sequence (N2B-us) single-molecule construct, 6His-Avi-2I27-N2B-2I27-Spy (human). Description: magnetic tweezers single-molecule manipulation; single-molecule binding assay with other LIM domain proteins (Fig. S13); construct, concentration and conditions not told in the text shown.

These are yes or no findings as the source states them, for the method shown.

B1: LIM domain only protein 3 (LMO3) (protein, UniProt Q8TAP4 1-145)
chain: MLSVQPDTKPKGCAGCNRKIKDRYLLKALDKYWHEDCLKCACCDCRLGEVGSTLYTKANLILCRRDYLRLFGVTGNCAACSKLIPAFEMVMRAKDNVYHLDCFACQLCNQRFCVGDKFFLKNNMILCQTDYEEGLMKEGYAPQVR
B1: the binding entry is given as “no binding”.

B2: LIM/homeobox protein2 (LHX2) (protein, UniProt P50458 1-406)
chain: MLFHSLSGPEVHGVIDEMDRRAKSEAPAISSAIDRGDTETTMPSISSDRAALCAGCGGKISDRYYLLAVDKQWHMRCLKCCECKLNLESELTCFSKDGSIYCKEDYYRRFSVQRCARCHLGISASEMVMRARDLVYHLNCFTCTTCNKMLTTGDHFGMKDSLVYCRLHFEALLQGEYPAHFNHADVAAAAAAAAAAKSAGLGAAGANPLGLPYYNGVGTVQKGRPRKRKSPGPGADLAAYNAALSCNENDAEHLDRDQPYPSSQKTKRMRTSFKHHQLRTMKSYFAINHNPDAKDLKQLAQKTGLTKRVLQVWFQNARAKFRRNLLRQENTGVDKSTDAALQTGTPSGPASELSNASLSPSSTPTTLTDLTSPTLPTVTSVLTSVPGNLEGHEPHSPSQTTLTNLF
As to B2, the binding entry is reported as “no binding”.
